Results taken from patent US4477440A (Merck & Co., Inc., priority 1983, dated 1984).

Assay: general procedure: Boc solid-phase peptide synthesis; BOC-Phe esterified to 2% cross-linked polystyrene-divinylbenzene; DCCI with 1-hydroxybenzotriazole
Settings: cyclisation step

## BOC-Hcys-Pro-Phe-Hcys-Sta-Leu-Phe-OCH3
  final HPLC purity: 98.2%
